According to patent EP3807241B1, “IMPROVEMENTS IN OR RELATING TO ORGANIC COMPOUNDS” (Givaudan SA, priority 2018, dated 2019):

Assay: Odor description

Structure (SMILES): CC(C)CC1=CCC(CCC=O)C(C)C1 (centres unmarked) [3-(4-isobutyl-6-methylcyclohex-3-en-1-yl)propanal]
- Odor Description: aldehydic, green, floral, fatty, orris

Structure (SMILES): CC1=C(CCC=O)CCC(C(C)C)C1 (centres unmarked) [3-(4-isopropyl-2-methylcyclo-hex-1-en-1-yl)propanal]
- Odor Description: aldehydic, green, fatty, muguet, bourgeonal
